Consider one molecule from PMC7949097.

The assay has as its target T1, β1,4-galactosyltransferase 6 (B4GALT6) (UniProt Q9UBX8).
T1 sequence: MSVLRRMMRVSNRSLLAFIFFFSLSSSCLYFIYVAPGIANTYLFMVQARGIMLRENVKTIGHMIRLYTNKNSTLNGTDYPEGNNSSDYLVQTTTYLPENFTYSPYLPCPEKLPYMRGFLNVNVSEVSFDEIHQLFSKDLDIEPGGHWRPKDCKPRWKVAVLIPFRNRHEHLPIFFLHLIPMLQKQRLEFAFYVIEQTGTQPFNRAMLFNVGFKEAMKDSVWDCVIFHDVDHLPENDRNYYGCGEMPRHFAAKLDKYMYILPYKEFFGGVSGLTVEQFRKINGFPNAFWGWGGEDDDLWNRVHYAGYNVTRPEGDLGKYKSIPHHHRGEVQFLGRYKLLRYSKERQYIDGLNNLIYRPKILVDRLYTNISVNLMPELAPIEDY
Nature of the assay: split reporter; Bimolecular Fluorescence Complementation Assay; unpublished results.

These are yes or no findings as the source states them, for the method shown. In cells and extracts the contact can be indirect. Some results given as binding are weak or reduced against the parent protein; the word gives no strength.

B1: Human Gb3/CD77 synthase (α1,4-galactosyltransferase) (enzyme, UniProt Q9NPC4 1-353)
chain: MSKPPDLLLRLLRGAPRQRVCTLFIIGFKFTFFVSIMIYWHVVGEPKEKGQLYNLPAEIPCPTLTPPTPPSHGPTPGNIFFLETSDRTNPNFLFMCSVESAARTHPESHVLVLMKGLPGGNASLPRHLGISLLSCFPNVQMLPLDLRELFRDTPLADWYAAVQGRWEPYLLPVLSDASRIALMWKFGGIYLDTDFIVLKNLRNLTNVLGTQSRYVLNGAFLAFERRHEFMALCMRDFVDHYNGWIWGHQGPQLLTRVFKKWCSIRSLAESRACRGVTTLPPEAFYPIPWQDWKKYFEDINPEELPRLLSATYAVHVWNKKSQGTRFEATSRALLAQLHARYCPTTHEAMKMYL
In the case of B1, the binding entry was “binds”.
